Reference: patent US20150018285A1 (CARMEL HAIFA UNIVERSITY ECONOMIC, published 2015)
These are yes or no findings as the source states them, for the method shown. For part of these data: Binding seen in cells or lysates may run through a third protein. Some entries that bind do so weakly or less than the wild type. For part of these data: Tags and fused reporters may be left off the sequences shown.

Sequences of proteins named here, by UniProt entry; tags and fusion partners are left off. A change or cut given only in a name is not applied to a line headed by its entry.
UniProt P10415: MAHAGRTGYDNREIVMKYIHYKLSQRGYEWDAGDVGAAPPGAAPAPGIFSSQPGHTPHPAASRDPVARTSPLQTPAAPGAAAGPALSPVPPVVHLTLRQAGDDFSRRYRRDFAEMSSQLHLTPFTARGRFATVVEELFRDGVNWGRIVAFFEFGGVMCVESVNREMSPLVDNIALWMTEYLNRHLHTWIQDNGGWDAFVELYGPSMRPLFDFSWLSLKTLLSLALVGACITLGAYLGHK
UniProt P98170: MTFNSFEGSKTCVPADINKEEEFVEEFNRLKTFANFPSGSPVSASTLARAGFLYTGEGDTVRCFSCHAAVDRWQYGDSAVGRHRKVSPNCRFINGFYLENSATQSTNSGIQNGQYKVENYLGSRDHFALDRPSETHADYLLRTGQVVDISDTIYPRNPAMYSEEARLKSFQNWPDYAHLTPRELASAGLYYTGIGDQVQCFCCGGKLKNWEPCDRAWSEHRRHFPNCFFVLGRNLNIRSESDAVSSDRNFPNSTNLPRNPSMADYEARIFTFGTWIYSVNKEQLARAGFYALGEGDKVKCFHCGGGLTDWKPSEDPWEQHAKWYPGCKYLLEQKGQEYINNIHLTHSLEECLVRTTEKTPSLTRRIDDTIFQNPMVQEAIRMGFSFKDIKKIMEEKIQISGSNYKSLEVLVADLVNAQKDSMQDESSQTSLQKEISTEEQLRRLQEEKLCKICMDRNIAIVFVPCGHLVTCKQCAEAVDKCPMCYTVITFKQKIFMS

Legend:
[1] = target: T1, B-cell CLL/lymphoma 2 (Bcl-2) (human, UniProt P10415 1-239); test: pull-down with anti-myc agarose beads from COS-7 cells co-transfected with Bcl-2 and ARTS, Western blot (FIG. 4A)
T1 construct: Used as endogenous Bcl-2 (HeLa, BT-549) or from a transfected Bcl-2 construct; also called Bch 2; endogenous Bcl-2

[2] = target: T1, B-cell CLL/lymphoma 2 (Bcl-2); test: IP with anti-ARTS monoclonal antibody from COS-7 cells transfected with the 6-Myc-ARTS construct; the partner is endogenous in COS-7 (FIG. 4B)
[3] = target: Bcl-2 cloned into pBiFC-VN173 (human) (UniProt P10415); test: split-Venus BiFC in HeLa cells, read by flow cytometry
[4] = target: XIAP cloned into pBiFC-VN173 (1-172) (human) (UniProt P98170); test: split-Venus BiFC in HeLa cells, read by flow cytometry; positive control
[5] = target: T1, B-cell CLL/lymphoma 2 (Bcl-2); test: IP with monoclonal anti-ARTS antibody from HeLa wt lysate, Western blot (FIG. 9); binding still seen after 24 h of ABT-263
[6] = target: T1, B-cell CLL/lymphoma 2 (Bcl-2); test: IP with monoclonal anti-ARTS antibody, Western blot with anti-Bcl-2 (FIG. 10)
[7] = target: T1, B-cell CLL/lymphoma 2 (Bcl-2); test: IP of transfected HeLa lysates with anti-Bcl-2 antibody, Western blot with anti-ARTS (FIG. 11A)
[8] = target: T1, B-cell CLL/lymphoma 2 (Bcl-2); test: IP with anti-ARTS monoclonal antibody from HeLa and BT-549 cells, Western blot (FIG. 4B)
[9] = target: T1, B-cell CLL/lymphoma 2 (Bcl-2); test: IP with monoclonal anti-ARTS antibody (400 ug protein) after 25 uM ABT-263 for 3 and 24 h, with or without QVD, Western blot (FIG. 10)
[10] = target: T1, B-cell CLL/lymphoma 2 (Bcl-2); test: immunoprecipitation of ARTS from cell lysates, Western blot (FIG. 4B)
[11] = target: T1, B-cell CLL/lymphoma 2 (Bcl-2); test: IP of the mitochondrial fraction with anti-Bcl-2 antibody, Western blot (FIG. 4E)
[12] = target: T1, B-cell CLL/lymphoma 2 (Bcl-2); test: co-IP with anti-ARTS antibody from HeLa lysates, with or without 1.75 uM STS for 2 h, Western blot (FIG. 4D)
[13] = target: T1, B-cell CLL/lymphoma 2 (Bcl-2); test: IP of endogenous Bcl-2 from HeLa cells, Western blot (FIG. 4E)
[14] = target: T1, B-cell CLL/lymphoma 2 (Bcl-2); test: IP with monoclonal anti-ARTS antibody from HeLa wt lysate (750 ug), with or without 25 uM ABT-263 for 24 h, Western blot (FIG. 9)
[15] = target: T1, B-cell CLL/lymphoma 2 (Bcl-2); test: IP with anti-XIAP or anti-ARTS antibody from HeLa cells after 1.75 uM STS for 2 h (FIGS. 4C, 4D)

Measured: binding

B1: 6-Myc-ARTS (other)
chain: MIKRFLEDTTDDGELSKFVKDFSGNASCHPPEAKTWASRPQVPEPRPQAPDLYDDDLEFRPPSRPQSSDNQQYFCAPAPLSPSARPRSPWGKLDPYDSSEDDKEYVGFATLPNQVHRKSVKKGFDFTLMVAGESGLGKSTLVNSLFLTDLYRDRKLLGAEERIMQTVEITKHAVDIEEKGVRLRLTIVDTPGFGDAVNNTECWKPVAEYIDQQFEQYFRDESGLNRKNIQDNRVHCCLYFISPFGHGYGPSLRLLAPPGAVKGTGQEHQGQGCH
notes: Expressed by transient transfection in COS-7 cells; also called pSC2-6Myc ARTS; not shown: 6xMyc tag of pSC2-6Myc
binds: [1] | [2]

B2: ARTS cloned into pBiFC-VC155 (155-238) (protein, not shown: large carriers)
chain: MIKRFLEDTTDDGELSKFVKDFSGNASCHPPEAKTWASRPQVPEPRPQAPDLYDDDLEFRPPSRPQSSDNQQYFCAPAPLSPSARPRSPWGKLDPYDSSEDDKEYVGFATLPNQVHRKSVKKGFDFTLMVAGESGLGKSTLVNSLFLTDLYRDRKLLGAEERIMQTVEITKHAVDIEEKGVRLRLTIVDTPGFGDAVNNTECWKPVAEYIDQQFEQYFRDESGLNRKNIQDNRVHCCLYFISPFGHGYGPSLRLLAPPGAVKGTGQEHQGQGCH
binds: [3] | [4]

B3: Apoptosis Related Protein in the TGF-beta Signaling Pathway (ARTS) (other)
chain: MIKRFLEDTTDDGELSKFVKDFSGNASCHPPEAKTWASRPQVPEPRPQAPDLYDDDLEFRPPSRPQSSDNQQYFCAPAPLSPSARPRSPWGKLDPYDSSEDDKEYVGFATLPNQVHRKSVKKGFDFTLMVAGESGLGKSTLVNSLFLTDLYRDRKLLGAEERIMQTVEITKHAVDIEEKGVRLRLTIVDTPGFGDAVNNTECWKPVAEYIDQQFEQYFRDESGLNRKNIQDNRVHCCLYFISPFGHGYGPSLRLLAPPGAVKGTGQEHQGQGCH
notes: also called FL ARTS; full length ARTS
binds: [5] | [6] | [7] | [8] | [9] | [10] | [11] | [12] | [13] | [14] | [15]
